Results from the supplement of paper PMC10331698.
± gives the standard deviation of the averaged measurements. Most values lie at the level of the controls, where differences are scatter.

Columns and labels:
Assay in all cases: level (log10 ratio to DMSO vehicle control); higher = higher biomarker level / cell amount than vehicle control
Hexafluoroamylene glycol = compound: OCC(F)(F)C(F)(F)C(F)(F)CO [Hexafluoroamylene glycol]; settings: 2200 nM; in DMSO
Procedure: (§1)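 BioMAP Diversity Plus panel of 12 human primary cell co-culture systems (3C, 4H, LPS, SAg, BT, BF4T, BE3C, CASM3C, HDF3CGF, KF3CT, MyoF, Mphg). Compounds were added 1 h before stimulation and left for 24 h (MyoF 48 h; BT 72 h for soluble read-outs or 6 d for IgG). Biomarkers were read by ELISA, cytotoxicity by SRB, PBMC viability and proliferation by Alamar Blue. Each well value was divided by the mean of 8 DMSO control wells on the same plate and log10 transformed; duplicate blinded samples were tested at 4 concentrations.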

Perfluoro-1-iodohexane = compound: FC(F)(F)C(F)(F)C(F)(F)C(F)(F)C(F)(F)C(F)(F)I [Perfluoro-1-iodohexane]; settings: in DMSO
Procedure: as §1

[1] = compound: O=C(O)C=C(C(F)(F)F)C(F)(F)F [3,3-Bis(trifluoromethyl)-2-propenoic acid]; settings: in DMSO
Procedure: as §1

[2] = compound: O=C(Cl)C(F)(F)C(F)(F)C(F)(F)C(=O)Cl [Hexafluoroglutaryl chloride]; settings: 2200 nM; in DMSO
Procedure: as §1

[3] = compound: O=S(=O)(O)C(F)(F)C(F)(F)C(F)(F)C(F)(F)C(F)(F)C(F)(F)F [Perfluorohexanesulfonic acid]; settings: 2200 nM; in DMSO
Procedure: as §1

[4] = compound: FC(F)(I)C(F)(F)C(F)(F)C(F)(F)C(F)(F)C(F)(F)I [1,6-Diiodoperfluorohexane]; settings: 2200 nM; in DMSO
Procedure: as §1

[5] = compound: C=CC(=O)OCCC(F)(F)C(F)(F)C(F)(F)C(F)(F)F [2-(Perfluorobutyl)ethyl acrylate]; settings: 2200 nM; in DMSO
Procedure: as §1

[6] = compound: C=CC(=O)OCCC(F)(F)C(F)(F)C(F)(F)C(F)(F)C(F)(F)C(F)(F)C(F)(F)C(F)(F)F [8:2 Fluorotelomer acrylate]; settings: 2200 nM; in DMSO
Procedure: as §1

[7] = compound: FC(F)(F)C(F)(C(F)(F)F)C(F)(F)C(F)(F)CC1CO1 [3-(Perfluoro-3-methylbutyl)-1,2-propenoxide]; settings: in DMSO
Procedure: as §1

[8] = compound: O=C(O)C(F)(F)C(F)(F)C(F)(F)C(F)(F)C(F)(F)C(F)(F)C(F)(F)C(F)(F)C(F)(F)C(F)(F)C(F)(F)C(F)(F)C(F)(F)F [Perfluorotetradecanoic acid]; settings: in DMSO
Procedure: as §1

[9] = compound: OCCCC(F)(F)C(F)(F)C(F)(F)C(F)(F)C(F)(F)C(F)(F)C(F)(F)F [7:3 Fluorotelomer alcohol]; settings: 2200 nM; in DMSO
Procedure: as §1

[10] = compound: O=S(=O)(O)CCC(F)(F)C(F)(F)C(F)(F)C(F)(F)F [4:2 Fluorotelomer sulfonic acid]; settings: 2200 nM; in DMSO
Procedure: as §1

[11] = compound: C=CC(=O)OCC(F)(F)C(F)(F)C(F)(F)COC(=O)C=C [1H,1H,5H,5H-Perfluoro-1,5-pentanediol diacrylate]; settings: 2200 nM; in DMSO
Procedure: as §1

Test System	level (log10) (Hexafluoroamylene glycol)	level (log10) (Perfluoro-1-iodohexane; 2200 nM)	level (log10) (Perfluoro-1-iodohexane; 6700 nM)	level (log10) (Perfluoro-1-iodohexane; 20000 nM)	level (log10) (Perfluoro-1-iodohexane; 60000 nM)	level (log10) ([1]; 2200 nM)	level (log10) ([1]; 6700 nM)	level (log10) ([1]; 20000 nM)	level (log10) ([1]; 60000 nM)	level (log10) [2]	level (log10) [3]	level (log10) [4]	level (log10) [5]	level (log10) [6]	level (log10) ([7]; 740 nM)	level (log10) ([7]; 2200 nM)	level (log10) ([8]; 740 nM)	level (log10) ([8]; 2200 nM)	level (log10) [9]	level (log10) [10]	level (log10) [11]
BF4T:IL-1alpha	0.0095 ± 0.025	-0.004 ± 0.017	-0.0075 ± 0.005	-0.0065 ± 0.012	-0.004 ± 0.0057	0.014 ± 0.02	-0.009 ± 0.0057	-0.003 ± 0.0085	-0.0065 ± 0.035	-0.012 ± 0.037	0.003 ± 0.023	0.012 ± 0.025	0.0055 ± 0.029	0.0265 ± 0.015	0.0105 ± 0.026	-0.003 ± 0.0042	0.0045 ± 0.028	-0.008 ± 0.0057	-0.0005 ± 0.005	0.002 ± 0.041	0.0155 ± 0.013
SAg:CXCL8/IL-8	0.027 ± 0.038	-0.001 ± 0.05	0.0365 ± 0.016	-0.004 ± 0.0071	0.002 ± 0.059	0.0195 ± 0.039	-0.0225 ± 0.025	-0.101 ± 0.023	-0.227 ± 0.084	-0.014 ± 0.033	0.026 ± 0.038	0.027 ± 0.011	-0.013 ± 0.027	0.0035 ± 0.11	0.014 ± 0.054	-0.0205 ± 0.005	0.044 ± 0.089	-0.024 ± 0.017	-0.0155 ± 0.066	0.015 ± 0.0085	-0.0585 ± 0.13
LPS:CD69	-0.0245 ± 0.056	-0.0245 ± 0.012	-0.0185 ± 0.0064	-0.0025 ± 0.0035	-0.032 ± 0.0099	-0.028 ± 0.042	-0.072 ± 0.02	-0.0565 ± 0.057	-0.028 ± 0.09	0.051 ± 0.013	-0.009 ± 0.054	0.018 ± 0.02	-0.0085 ± 0.035	0.057 ± 0.045	0.027 ± 0.061	-0.005 ± 0.034	-0.007 ± 0.0042	0.001 ± 0.038	-0.025 ± 0.0099	-0.013 ± 0.021	-0.0145 ± 0.074
LPS:M-CSF	0.02 ± 0.0028	0.012 ± 0.023	0.0135 ± 0.019	-0.0055 ± 0.05	-0.003 ± 0.025	-0.0305 ± 0.005	-0.071 ± 0.082	-0.155 ± 0.13	-0.203 ± 0.13	0.009 ± 0.048	0.0115 ± 0.015	0.028 ± 0.027	0.005 ± 0.038	0.021 ± 0.067	0.014 ± 0.037	-0.0025 ± 0.0021	0.01 ± 0.011	-0.019 ± 0.011	0.0025 ± 0.029	-0.0005 ± 0.023	0.002 ± 0.068
SAg:CD38	0.0085 ± 0.035	-0.0145 ± 0.13	-0.059 ± 0.15	-0.01 ± 0.02	0.0005 ± 0.076	0.0035 ± 0.0078	0.0025 ± 0.013	-0.019 ± 0.017	-0.073 ± 0.0028	-0.024 ± 0.055	0.003 ± 0.045	0.0165 ± 0.029	0.016 ± 0.059	-0.005 ± 0.0042	0.0115 ± 0.012	-0.0015 ± 0.012	-0.005 ± 0.023	-0.039 ± 0.045	0.0485 ± 0.059	0.022 ± 0.023	0.0175 ± 0.053
BF4T:SRB	0.0195 ± 0.037	0.007 ± 0.021	-0.006 ± 0.0085	-0.011 ± 0.011	-0.0135 ± 0.016	-0.0045 ± 0.00071	0.0015 ± 0.005	-0.006 ± 0.011	0.0045 ± 0.0092	-0.0095 ± 0.019	-0.0025 ± 0.011	-0.0035 ± 0.0021	-0.003 ± 0.0071	-0.0025 ± 0.016	-0.004	-0.002 ± 0.0028	0.009 ± 0.021	0.0065 ± 0.0021	0.012 ± 0.0071	0.0115 ± 0.016	0.001 ± 0.0028
BE3C:EGFR	0.005 ± 0.011	0.022 ± 0.0099	0.0095 ± 0.00071	-0.0055 ± 0.0021	0.0285 ± 0.013	-0.0015 ± 0.023	-0.015 ± 0.014	-0.011 ± 0.0085	-0.0015 ± 0.012	0.0195 ± 0.012	-0.0015 ± 0.011	-0.017 ± 0.0014	-0.013 ± 0.0099	0.0025 ± 0.015	-0.013 ± 0.021	-0.0105 ± 0.013	0.017 ± 0.0028	0.002 ± 0.0014	0.017 ± 0.0071	-0.0085 ± 0.0092	-0.009 ± 0.014
BT:PBMC Cytotoxicity	0.008 ± 0.0071	0.022 ± 0.031	0.042 ± 0.014	-0.0045 ± 0.022	0.0285 ± 0.0035	0.03 ± 0.031	0.0065 ± 0.049	0.001 ± 0.02	-0.009 ± 0.025	0.0045 ± 0.049	0.0135 ± 0.012	0.0025 ± 0.025	-0.0355 ± 0.0064	0.0055 ± 0.022	0.0165 ± 0.021	0.0095 ± 0.005	-0.005 ± 0.016	-0.0075 ± 0.00071	0.053	-0.0005 ± 0.05	-0.0735 ± 0.03
HDF3CGF:TIMP-1	-0.0225 ± 0.063	-0.0155 ± 0.016	-0.014 ± 0.021	-0.017 ± 0.025	-0.0385 ± 0.016	-0.0655 ± 0.074	-0.0935 ± 0.049	-0.125 ± 0.065	-0.0675 ± 0.013	0.0075 ± 0.03	0.007 ± 0.048	0.026 ± 0.018	-0.021 ± 0.048	-0.0035 ± 0.022	0.0055 ± 0.04	0.004 ± 0.011	0.023 ± 0.045	0.018 ± 0.079	-0.0285 ± 0.0078	0.0075 ± 0.028	-0.155 ± 0.096
BT:sTNF-alpha	-0.006 ± 0.086	0.065 ± 0.0099	0.009 ± 0.031	-0.0095 ± 0.14	-0.0015 ± 0.16	0.0435 ± 0.096	-0.047 ± 0.034	-0.184 ± 0.04	-0.637 ± 0.093	0.133 ± 0.051	0.114 ± 0.093	-0.061 ± 0.15	-0.0115 ± 0.018	0.182 ± 0.058	0.056 ± 0.13	0.0755 ± 0.0092	0.116 ± 0.093	0.127 ± 0.013	0.0265 ± 0.056	0.038 ± 0.067	-0.306 ± 0.086
3C:CD62E/E-Selectin	-0.0035 ± 0.00071	0.013 ± 0.014	-0.0025 ± 0.00071	-0.0165 ± 0.0035	-0.0025 ± 0.029	-0.0385 ± 0.015	-0.044 ± 0.0057	-0.081	-0.123 ± 0.026	-0.0035 ± 0.032	-0.018 ± 0.037	0.0105 ± 0.011	-0.024 ± 0.04	0.0075 ± 0.04	-0.018 ± 0.018	-0.0015 ± 0.0021	-0.0065 ± 0.0078	-0.013 ± 0.014	0.002 ± 0.017	0.015 ± 0.0099	-0.065 ± 0.034
LPS:SRB	-0.0065 ± 0.013	-0.0045 ± 0.0035	-0.0025 ± 0.0064	-0.0055 ± 0.0064	-0.0085 ± 0.00071	0.008 ± 0.014	-0.006 ± 0.0071	-0.024 ± 0.0085	-0.044 ± 0.0057	-0.0005 ± 0.0035	0.004 ± 0.0085	0.008 ± 0.017	0.0025 ± 0.018	-0.006	0.0065 ± 0.016	0.0075 ± 0.018	-0.001 ± 0.0042	-0.019	-0.002 ± 0.0071	-0.001 ± 0.0057	-0.005 ± 0.016

Copied from the list:
level (log10) ([1]; 60000 nM) with BF4T:SRB is entered as 0.0045 ± 0.0092
level (log10) [11] with SAg:CD38 is entered as 0.0175 ± 0.053
